Results: PMC5735797
No constants are given. Whether binding was seen depends on the method and setting. Binding seen in cells or lysates may run through a third protein. Some entries that bind do so weakly or less than the wild type. Sequences can lack the tags named with a protein.

Molecular target: APOBEC3G with HA tag (pcDNA3.1-A3G-HA), Q9HC16
Experiment: co-IP; lysates of transfected 293T cells (150 mM NaCl, 50 mM Tris-HCl pH 7.5, 1 mM EDTA, 1% Triton X-100, 0.5% NP-40) on anti-HA agarose beads, 4 h at 4 °C, four washes, western blotting; in some panels cells treated with MG132 (4 μM, 16 h) or co-transfected with siRNAs against ElonginB, ElonginC or Cullin 5
Conditions: remark: other sources report otherwise

B1: MOV10 with FLAG tag (pcDNA3.1-MOV10-FLAG), Q9HCE1 1-1003 (protein)
chain: MPSKFSCRQLREAGQCFESFLVVRGLDMETDRERLRTIYNRDFKISFGTPAPGFSSMLYGMKIANLAYVTKTRVRFFRLDRWADVRFPEKRRMKLGSDISKHHKSLLAKIFYDRAEYLHGKHGVDVEVQGPHEARDGQLLIRLDLNRKEVLTLRLRNGGTQSVTLTHLFPLCRTPQFAFYNEDQELPCPLGPGECYELHVHCKTSFVGYFPATVLWELLGPGESGSEGAGTFYIARFLAAVAHSPLAAQLKPMTPFKRTRITGNPVVTNRIEEGERPDRAKGYDLELSMALGTYYPPPRLRQLLPMLLQGTSIFTAPKEIAEIKAQLETALKWRNYEVKLRLLLHLEELQMEHDIRHYDLESVPMTWDPVDQNPRLLTLEVPGVTESRPSVLRGDHLFALLSSETHQEDPITYKGFVHKVELDRVKLSFSMSLLSRFVDGLTFKVNFTFNRQPLRVQHRALELTGRWLLWPMLFPVAPRDVPLLPSDVKLKLYDRSLESNPEQLQAMRHIVTGTTRPAPYIIFGPPGTGKTVTLVEAIKQVVKHLPKAHILACAPSNSGADLLCQRLRVHLPSSIYRLLAPSRDIRMVPEDIKPCCNWDAKKGEYVFPAKKKLQEYRVLITTLITAGRLVSAQFPIDHFTHIFIDEAGHCMEPESLVAIAGLMEVKETGDPGGQLVLAGDPRQLGPVLRSPLTQKHGLGYSLLERLLTYNSLYKKGPDGYDPQFITKLLRNYRSHPTILDIPNQLYYEGELQACADVVDRERFCRWAGLPRQGFPIIFHGVMGKDEREGNSPSFFNPEEAATVTSYLKLLLAPSSKKGKARLSPRSVGVISPYRKQVEKIRYCITKLDRELRGLDDIKDLKVGSVEEFQGQERSVILISTVRSSQSFVQLDLDFNLGFLKNPKRFNVAVTRAKALLIIVGNPLLLGHDPDWKVFLEFCKENGGYTGCPFPAKLDLQQGQNLLQGLSKLSPSTSGPHSHDYLPQEREGEGGLSLQVEPEWRNEL
binding: binds
